Results reported in patent publication US20100317598A1.
These are yes or no findings as the source states them, for the method shown. Some binding calls cover weakened binding; strength is not graded here.

The chains behind the UniProt entries cited, without tags or fusion partners. Residues count along the entry.
UniProt P99999, residues 2-105: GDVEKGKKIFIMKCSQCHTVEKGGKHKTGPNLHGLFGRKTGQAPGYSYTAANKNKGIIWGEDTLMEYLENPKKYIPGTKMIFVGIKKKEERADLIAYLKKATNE
UniProt O14727: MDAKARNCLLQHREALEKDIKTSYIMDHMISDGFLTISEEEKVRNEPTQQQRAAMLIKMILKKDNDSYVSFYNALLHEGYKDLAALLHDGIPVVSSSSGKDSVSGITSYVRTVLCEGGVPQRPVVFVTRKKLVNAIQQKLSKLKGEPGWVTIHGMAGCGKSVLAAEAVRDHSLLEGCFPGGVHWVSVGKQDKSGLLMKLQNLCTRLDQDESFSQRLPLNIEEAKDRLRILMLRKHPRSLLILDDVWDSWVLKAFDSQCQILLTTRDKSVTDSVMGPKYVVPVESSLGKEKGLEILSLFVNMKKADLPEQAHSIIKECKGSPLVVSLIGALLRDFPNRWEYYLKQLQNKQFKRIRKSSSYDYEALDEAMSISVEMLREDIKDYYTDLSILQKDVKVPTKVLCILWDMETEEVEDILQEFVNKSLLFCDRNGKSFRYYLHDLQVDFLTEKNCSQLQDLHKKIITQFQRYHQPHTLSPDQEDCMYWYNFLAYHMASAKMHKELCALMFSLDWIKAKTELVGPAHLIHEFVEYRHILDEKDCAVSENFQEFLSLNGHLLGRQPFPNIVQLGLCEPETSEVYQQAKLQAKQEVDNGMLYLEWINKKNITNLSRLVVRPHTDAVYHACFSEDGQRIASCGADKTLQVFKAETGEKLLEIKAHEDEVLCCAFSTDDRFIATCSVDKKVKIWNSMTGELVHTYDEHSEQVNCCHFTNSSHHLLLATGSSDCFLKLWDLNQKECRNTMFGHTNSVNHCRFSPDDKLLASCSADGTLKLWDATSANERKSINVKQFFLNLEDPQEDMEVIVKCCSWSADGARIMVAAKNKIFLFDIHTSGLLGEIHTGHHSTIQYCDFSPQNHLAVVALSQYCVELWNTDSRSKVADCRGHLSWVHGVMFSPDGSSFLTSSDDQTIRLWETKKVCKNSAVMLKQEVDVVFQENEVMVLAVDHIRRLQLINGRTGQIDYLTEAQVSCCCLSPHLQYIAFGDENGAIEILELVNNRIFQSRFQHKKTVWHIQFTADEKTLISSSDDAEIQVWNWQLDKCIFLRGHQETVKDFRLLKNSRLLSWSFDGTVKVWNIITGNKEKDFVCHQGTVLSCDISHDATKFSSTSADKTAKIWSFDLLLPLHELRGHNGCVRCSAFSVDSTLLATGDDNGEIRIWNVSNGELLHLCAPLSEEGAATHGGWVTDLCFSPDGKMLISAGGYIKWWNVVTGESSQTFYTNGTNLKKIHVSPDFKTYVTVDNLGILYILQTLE

Molecular target: cytochrome C (human) (UniProt P99999)
Test: immunopurification of cytochrome C from HBL-100 lysates, immunoblot for APAF-1

Substance: APAF-1 (from UniProt O14727 1-1248)
- binding: binds
